PubChem BioAssay AID1224826 – NIAID – 2016

Purpose: 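Knock-downs that raise or lower Tnf reporter signal after endotoxin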 (primary screen)
System: RAW264.7 G9 macrophages from mouse bearing reporters for p65 (GFP) and the Tnf promoter (mCherry)
Knock-down reagent: siRNA pool against mouse genes, 100 nM
Time to read-out: 16 h of LPS stimulation, after 2 days of siRNA transfection
Conditions: bacterial lipopolysaccharide (Salmonella minnesota R595), 10 ng/ml
Read-out: 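Imaged Tnf reporter mCherry in nuclei, minus background, normalised per plate to the median and expressed as robust z-scores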
Reading the numbers: Tnf reporter robust z-score: higher = stronger Tnf promoter reporter signal after LPS
Hit rule: 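Called active when robust z-score is at most -1.3, matching the median of the Tlr4 knock-down control, or over 3; control wells and wells with under 50 cells never active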
Meaning of the calls: active = Tnf reporter clearly lowered or raised; inactive = no clear change in Tnf reporter
In all, the deposit lists about 17,000 reagents; below is a random part of them. Of all reagents, about 1,110 (6.6%) are marked active. 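Active means lowered or raised reporter signal; replicate intensities are raw and not normalised per plate.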 Unmarked entries are inactive. Not all columns of the deposit are shown.

Tnf reporter robust z-score | fewer than 50 cells in well | Target gene | PubChem SID
– | fewer than 50 cells per well; well left out of calls | Tff2 (trefoil factor 2 (spasmolytic protein 1)) | SID315469681
-1.76 (active) | enough cells in well | Heatr5a (HEAT repeat containing 5A) | SID315481323
1.85 | enough cells in well | Pdcd4 (programmed cell death 4) | SID315468427
3.54 (active) | enough cells in well | Plaat5 (phospholipase A and acyltransferase 5) | SID315472610
1.74 | enough cells in well | Doc2g (double C2, gamma) | SID315472016
0.33 | enough cells in well | Glis1 (GLIS family zinc finger 1) | SID315478792
0.12 | enough cells in well | Lrrc8c (leucine rich repeat containing 8 family, member C) | SID315476233
1.96 | enough cells in well | Cyp4b1 (cytochrome P450, family 4, subfamily b, polypeptide 1) | SID315466249
-0.15 | enough cells in well | Dynlt1b (dynein light chain Tctex-type 1B) | SID315469640
-0.33 | enough cells in well | Gadd45b (growth arrest and DNA-damage-inducible 45 beta) | SID315468051
0.3 | enough cells in well | Mrgprx2 (MAS-related GPR, member X2) | SID315479728

Only “Tnf reporter robust z-score” (2 entries from above):
Heatr5a (HEAT repeat containing 5A) [SID315481323] = -1.76 (active)
Pdcd4 (programmed cell death 4) [SID315468427] = 1.85

Additional reagents follow.
Tnf reporter robust z-score | fewer than 50 cells in well | Target gene | PubChem SID
-0.53 | enough cells in well | Vgll4 (vestigial like family member 4) | SID315478978
-0.12 | enough cells in well | Thsd7b (thrombospondin, type I, domain containing 7B) | SID315477640
0.4 | enough cells in well | Kiss1 (KiSS-1 metastasis-suppressor) | SID315481017
1.12 | enough cells in well | Ms4a10 (membrane-spanning 4-domains, subfamily A, member 10) | SID315473913
-0.32 | enough cells in well | Gcnt3 (glucosaminyl (N-acetyl) transferase 3, mucin type) | SID315474445
0.9 | enough cells in well | Kcnk2 (potassium channel, subfamily K, member 2) | SID315467590
-0.72 | enough cells in well | Nes (nestin) | SID315468133
0.14 | enough cells in well | Ash2l (ASH2 like histone lysine methyltransferase complex subunit) | SID315470183
-0.57 | enough cells in well | Cadps (Ca2+-dependent secretion activator) | SID315470532
-1 | enough cells in well | Lpcat2 (lysophosphatidylcholine acyltransferase 2) | SID315480913
0.14 | enough cells in well | Lgr5 (leucine rich repeat containing G protein coupled receptor 5) | SID315466656
-0.24 | enough cells in well | Arl3 (ADP-ribosylation factor-like 3) | SID315471471
-1.18 | enough cells in well | Cnr1 (cannabinoid receptor 1) | SID315466035
